In PMC4735494 one finds binding data, which are given here for one molecule.

What all share (assay): two-hybrid; GAL4-based system (Matchmaker Gold, Clontech), yeast strain Y2HGold; growth on SD/-Trp-Leu-His-Ade plates with X-α-gal and Aureobasidin A
The target in assay [1] is SsSSVP1^∆SP single-point mutant C79A, yeast two-hybrid fusion (Sclerotinia sclerotiorum).
Assay [2] concerns the target SsSSVP1^∆SP single-point mutant C117A, yeast two-hybrid fusion (Sclerotinia sclerotiorum).
In assay [3] the target is SsSSVP1^∆SP-C44A, yeast two-hybrid fusion (Sclerotinia sclerotiorum).
Assay [4] has as its target SsSSVP1^∆SP-C38A, yeast two-hybrid fusion (Sclerotinia sclerotiorum).
Assay [5] deals with SsSSVP1^∆SP single-point mutant C54A, yeast two-hybrid fusion (Sclerotinia sclerotiorum).
The target of assay [6] is SsSSVP1^∆SP-C38A-C44A (double-point mutant), yeast two-hybrid fusion (Sclerotinia sclerotiorum).
For assay [7], the target named is SsSSVP1^∆SP single-point mutant C92A, yeast two-hybrid fusion (Sclerotinia sclerotiorum).
Assay [8] concerns the target SsSSVP1^∆SP single-point mutant C81A, yeast two-hybrid fusion (Sclerotinia sclerotiorum).
The target of assay [9] is SsSSVP1^∆SP single-point mutant C95A, yeast two-hybrid fusion (Sclerotinia sclerotiorum).

These are yes or no findings as the source states them, for the method shown. For part of these data: Binding can be weak; no strength is given. Where a sequence is shown, tags or fusion partners need not be part of it.

B1: QCR8 (AT3G10860), subunit 8 of cytochrome b-c1 complex, yeast two-hybrid fusion (protein, UniProt Q9SG91 1-72)
chain: MGKQPVKLKAVVYALSPFQQKIMTGLWKDLPEKIHHKVSENWISATLLVTPVVGTYWYAQYFKEQEKLEHRF
With B1, the binding result is on record as “binds” in [1]; “binds” in assay [2]; “binds” in assay [3]; “binds” in assay [4]; “binds” in assay [5]; “no binding” in assay [6]. Moreover, the binding result in assay [7], in assay [8] and in assay [9] was “binds” each time.
